Substitutions are numbered along the chain they refer to. These are yes or no findings as the source states them, for the method shown. In cells and extracts the contact can be indirect. Some results given as binding are weak or reduced against the parent protein; the word gives no strength. Where a sequence is shown, tags or fusion partners need not be part of it.
Key:
[1] = molecular target: PDLP5^VV, half-YFP fusion (Arabidopsis thaliana) (UniProt Q8GUJ2); assay: split reporter; split YFP-based BiFC; Yn and Yc fusions co-expressed in N. benthamiana leaves by agroinfiltration (1:1 mixture); imaged 29-31 hpa; YFP signal at plasmodesmata marked by callose staining
[2] = molecular target: T1, Plasmodesmata-located protein 4 (PDLP4), half-YFP fusion (Arabidopsis thaliana) (UniProt Q6E263); assay: as above
T1 sequence: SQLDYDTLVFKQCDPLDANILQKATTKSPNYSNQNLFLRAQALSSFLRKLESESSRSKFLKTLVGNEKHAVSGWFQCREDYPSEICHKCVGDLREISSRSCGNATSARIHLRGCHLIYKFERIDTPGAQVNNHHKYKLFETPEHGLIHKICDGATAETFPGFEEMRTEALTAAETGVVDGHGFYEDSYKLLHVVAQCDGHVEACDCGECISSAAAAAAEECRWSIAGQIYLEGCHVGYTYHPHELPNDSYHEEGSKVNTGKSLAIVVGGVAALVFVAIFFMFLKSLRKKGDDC

[3] = molecular target: T2, Plasmodesmata-located protein 1 (PDLP1), half-YFP fusion (Arabidopsis thaliana) (UniProt Q8GXV7); assay: as above
T2 sequence: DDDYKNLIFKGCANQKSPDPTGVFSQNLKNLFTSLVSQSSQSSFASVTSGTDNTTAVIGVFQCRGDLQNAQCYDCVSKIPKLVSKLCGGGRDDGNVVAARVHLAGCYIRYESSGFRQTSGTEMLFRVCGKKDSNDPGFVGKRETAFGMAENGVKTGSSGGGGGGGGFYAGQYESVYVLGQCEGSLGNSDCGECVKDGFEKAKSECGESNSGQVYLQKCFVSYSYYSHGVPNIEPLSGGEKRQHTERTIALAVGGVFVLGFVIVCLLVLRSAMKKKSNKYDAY

[4] = molecular target: T3, Plasmodesmata-located protein 5 (PDLP5), half-YFP fusion (Arabidopsis thaliana) (UniProt Q8GUJ2); assay: as above
T3 sequence: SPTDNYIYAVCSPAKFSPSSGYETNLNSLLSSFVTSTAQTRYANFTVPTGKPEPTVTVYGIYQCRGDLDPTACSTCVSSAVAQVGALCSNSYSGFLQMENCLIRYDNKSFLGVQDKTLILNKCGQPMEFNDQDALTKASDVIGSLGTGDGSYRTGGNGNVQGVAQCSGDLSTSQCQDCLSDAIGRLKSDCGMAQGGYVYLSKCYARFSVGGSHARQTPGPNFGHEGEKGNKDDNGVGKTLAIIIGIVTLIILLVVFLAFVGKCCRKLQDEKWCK

[5] = molecular target: T4, Plasmodesmata-located protein 5 (PDLP5), EGFP or mCherry fusion (Arabidopsis thaliana) (UniProt Q8GUJ2); assay: FRET or BRET; acceptor photobleaching FRET; EGFP (donor) and mCherry (acceptor) fusions co-expressed in N. benthamiana leaf epidermal cells; mCherry bleached with the 561-nm line at 100% for 10 s in ROIs at plasmodesmata (whole nuclei for free EGFP/mCherry)
T4 sequence: T3 sequence

[6] = molecular target: T5, Plasmodesmata-located protein 4 (PDLP4), EGFP or mCherry fusion (Arabidopsis thaliana) (UniProt Q6E263); assay: as above
T5 sequence: T1 sequence

[7] = molecular target: T6, Plasmodesmata-located protein 1 (PDLP1), EGFP or mCherry fusion (Arabidopsis thaliana) (UniProt Q8GXV7); assay: as above
T6 sequence: T2 sequence

[8] = molecular target: PDLP5^VV, EGFP or mCherry fusion (Arabidopsis thaliana) (UniProt Q8GUJ2); assay: as above

Measured: binding

B1: PDLP5^VV, half-YFP fusion (protein, UniProt Q8GUJ2 26-299)
chain: T3 sequence with A241V, G245V
binds: [1] | [2] | [3] | [4]

B2: PDLP5^VV, EGFP or mCherry fusion (protein, UniProt Q8GUJ2 26-299)
chain: T3 sequence with A241V, G245V
binds: [5] | [6] | [7] | [8]

B3: Plasmodesmata-located protein 5 (PDLP5), half-YFP fusion (protein, UniProt Q8GUJ2 26-299)
chain: T3 sequence
binds: [2] | [3] | [4]

B4: Plasmodesmata-located protein 5 (PDLP5), EGFP or mCherry fusion (protein, UniProt Q8GUJ2 26-299)
chain: T3 sequence
binds: [6] | [7]

Source: article PMC7275062
